Measured values taken from publication PMC11886612.
Results are given in words; binding and its absence hold for the method and conditions named. Binding seen in cells or lysates may run through a third protein. Some entries that bind do so weakly or less than the wild type.

Chains of the proteins cited; added tags and fusions are not shown. Lines headed by an entry give the natural chain unless they say otherwise; changes in a name come on top. Residues count along the entry.
UniProt Q16654, residues 335-411: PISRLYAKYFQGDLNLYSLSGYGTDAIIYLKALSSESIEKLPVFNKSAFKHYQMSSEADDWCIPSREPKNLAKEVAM

Molecular target: PDK4 truncated mutant, region 335-411 (UniProt Q16654)
Assay: co-IP; truncated mutants of Decr1 and PDK4; cells not given

B1: Decr1 truncated mutant, region 151-335 (domain or fragment, UniProt Q16698 151-335)
chain: SPTERLSPNAWKTITDIVLNGTAFVTLEIGKQLIKAQKGAAFLSITTIYAETGSGFVVPSASAKAGVEAMSKSLAAEWGKYGMRFNVIQPGPIKTKGAFSRLDPTGTFEKEMIGRIPCGRLGTVEELANLAAFLCSDYASWINGAVIKFDGGEEVLISGEFNDLRKVTKEQWDTIEELIRKTKGS
With B1 the binding was “binds”.
